Measured values: PubChem BioAssay AID248 (DTP/NCI, 2004)
The list shows only some results of the screen, not a fair sample: it is rich in T/C values a quarter to a half above the control, in often repeated tests (any T/C) and in doses without a T/C. Other doses and runs of a compound stand elsewhere. T/C is the treated group as % of the vehicle group. Some doses have a count of surviving animals in place of a T/C: the source holds a T/C of zero for them, seemingly a mark for toxic or unscored doses. Some doses without a T/C left all or most animals alive at the check, yet need not have been tolerated: the source hardly ever lists a survival T/C far under the control, and the zero likely stands for such cases as well. Survivors were counted at the toxicity check, usually on the fifth day, unless a day is given; later deaths do not show. Schedule codes are those of the source, read here as Q, the interval in days (D) or hours (H), X, the number of doses. Some schedules carry Z or #; the key to these is not given. Some doses were run more than once; the values are given in rising order. Additions like (4×) count equal records among those shown. For survival time, the PubChem record calls one and a half times the control and up active, and a quarter to a half above the control has no call in these data; cut-offs in other NCI protocols can differ. Some T/C values are followed by the survivors on the day toxicity was checked, most often the fifth; without a count, all were alive then.

Tested on: L1210 leukemia ip in BDF1 mice, survival T/C
Assay: NCI In Vivo Anticancer Drug Screen. Data for tumor model L1210 Leukemia (intraperitoneal) in B6D2F1 (BDF1) mice
Settings: higher T/C = longer survival
[1] = T/C endpoint: mean survival time, dose: 400.0 mg/kg/injection, schedule: Q01DX001 (ip), vehicle: Klucel (hydroxypropylcellulose) (HPC)
[2] = T/C endpoint: mean survival time, dose: 200.0 mg/kg/injection, schedule: Q01DX009 (ip), vehicle: saline

SMILES: NC(N)=N/N=C\c1ccc(C2CCNCC2)cc1
- survivor count (T/C endpoint: mean survival time, dose: 15.0 mg/kg/injection, schedule: Q01DX Z (oral), vehicle: methylcellulose (MC)): 3 of 6
- survivor count (T/C endpoint: mean survival time, dose: 30.0 mg/kg/injection, schedule: Q01DX Z (oral), vehicle: methylcellulose (MC)): 5 of 6
- survivor count (T/C endpoint: mean survival time, dose: 60.0 mg/kg/injection, schedule: Q01DX Z (ip), vehicle: methylcellulose (MC)): 2 of 6
- survivor count (T/C endpoint: mean survival time, dose: 60.0 mg/kg/injection, schedule: Q01DX Z (oral), vehicle: methylcellulose (MC)): 3 of 6
- survivor count (T/C endpoint: mean survival time, dose: 120.0 mg/kg/injection, schedule: Q01DX Z (ip), vehicle: methylcellulose (MC)): 0 of 6
- survivor count (T/C endpoint: mean survival time, dose: 120.0 mg/kg/injection, schedule: Q01DX Z (oral), vehicle: methylcellulose (MC)): 1 of 6 and 3 of 6

SMILES: CS(=O)(=O)OCC(=O)O
- survivor count [1]: 0 of 6

SMILES: CCCCC(CC)CNCCOC(=O)c1ccc(N)cc1 (configuration not stated)
- survivor count (T/C endpoint: mean survival time, dose: 300.0 mg/kg/injection, schedule: Q01DX001 (ip), vehicle: other): 2 of 6

SMILES: CC(C)(Oc1ccc(Cl)cc1Cl)C(=O)O
- survivor count (T/C endpoint: mean survival time, dose: 200.0 mg/kg/injection, schedule: Q01DX009 (ip), vehicle: gum acacia): 5 of 6
- survivor count (T/C endpoint: mean survival time, dose: 400.0 mg/kg/injection, schedule: Q01DX009 (ip), vehicle: gum acacia): 0 of 6

SMILES: O=C(/C=C/c1ccccc1)N1CCOCC1
- survivor count [2]: 3 of 6
- survivor count (T/C endpoint: mean survival time, dose: 400.0 mg/kg/injection, schedule: Q01DX001 (ip), vehicle: saline): 2 of 6

SMILES: O=[N+]([O-])c1ccccc1OCCBr
- survivor count (T/C endpoint: mean survival time, dose: 400.0 mg/kg/injection, schedule: Q04DX003 (ip), vehicle: Klucel (hydroxypropylcellulose) (HPC)): 6 of 6

SMILES: C=C(Cl)COC(=O)C(C)O (configuration not stated)
- survivor count (T/C endpoint: mean survival time, dose: 200.0 mg/kg/injection, schedule: Q01DX001 (ip), vehicle: Klucel (hydroxypropylcellulose) (HPC)): 0 of 6
- survivor count [1]: 0 of 6

SMILES: O=P1(NCCCl)OCCCN1CCCl (configuration not stated)
- T/C (T/C endpoint: mean survival time, dose: 25.0 mg/kg/injection, schedule: Q01DX009 (ip), vehicle: water): 139 % of control
- T/C (T/C endpoint: mean survival time, dose: 50.0 mg/kg/injection, schedule: Q01DX001 (ip), vehicle: saline, evaluated on day 30): 126 % of control
- T/C (T/C endpoint: mean survival time, dose: 50.0 mg/kg/injection, schedule: Q01DX001 (ip), vehicle: saline, run until all animals had died): 130 % of control
- T/C (T/C endpoint: mean survival time, dose: 50.0 mg/kg/injection, schedule: Q07DX003 (ip), vehicle: saline): 126 % of control
- T/C (T/C endpoint: mean survival time, dose: 100.0 mg/kg/injection, schedule: Q01DX001 (ip), vehicle: saline, evaluated on day 30): 138 and 143 % of control
- T/C (T/C endpoint: mean survival time, dose: 100.0 mg/kg/injection, schedule: Q01DX001 (ip), vehicle: saline, run until all animals had died): 143 % of control [7 of 8 alive]
- T/C (T/C endpoint: mean survival time, dose: 200.0 mg/kg/injection, schedule: Q01DX009 (ip), vehicle: water): 134 % of control
- survivor count (T/C endpoint: mean survival time, dose: 400.0 mg/kg/injection, schedule: Q01DX009 (ip), vehicle: saline): 3 of 10
- survivor count (T/C endpoint: mean survival time, dose: 400.0 mg/kg/injection, schedule: Q01DX009 (ip), vehicle: water): 8 of 10
- T/C (T/C endpoint: median survival time, dose: 108.0 mg/kg/injection, schedule: Q01DX014 (ip), vehicle: water, evaluated on day 5): 148 % of control
- T/C (T/C endpoint: median survival time, dose: 108.0 mg/kg/injection, schedule: Q01DX014 (ip), vehicle: water, evaluated on day 45): 147 % of control
- T/C (T/C endpoint: median survival time, dose: 180.0 mg/kg/injection, schedule: Q01DX001 (ip), vehicle: water, evaluated on day 5): 167 and 214 % of control
- T/C (T/C endpoint: median survival time, dose: 180.0 mg/kg/injection, schedule: Q01DX001 (ip), vehicle: water, evaluated on day 7): 170 % of control
- T/C (T/C endpoint: median survival time, dose: 180.0 mg/kg/injection, schedule: Q01DX001 (ip), vehicle: water, evaluated on day 45): 168 % of control
- T/C (T/C endpoint: median survival time, dose: 180.0 mg/kg/injection, schedule: Q01DX001 (ip), vehicle: water, evaluated on day 50): 156 % of control
- T/C (T/C endpoint: median survival time, dose: 180.0 mg/kg/injection, schedule: Q01DX001 (ip), vehicle: water, evaluated on day 60): 155 % of control
- T/C (T/C endpoint: median survival time, dose: 180.0 mg/kg/injection, schedule: Q01DX001 (ip), vehicle: water, evaluated on day 90): 177 % of control
- T/C (T/C endpoint: median survival time, dose: 300.0 mg/kg/injection, schedule: Q01DX001 (ip), vehicle: water, evaluated on day 5): 178, 208, 283 % of control
- T/C (T/C endpoint: median survival time, dose: 300.0 mg/kg/injection, schedule: Q01DX001 (ip), vehicle: water, evaluated on day 7): 174 % of control
- T/C (T/C endpoint: median survival time, dose: 300.0 mg/kg/injection, schedule: Q01DX001 (ip), vehicle: water, evaluated on day 45): 189 % of control
- T/C (T/C endpoint: median survival time, dose: 300.0 mg/kg/injection, schedule: Q01DX001 (ip), vehicle: water, evaluated on day 50): 175 % of control [7 of 8 alive]
- T/C (T/C endpoint: median survival time, dose: 300.0 mg/kg/injection, schedule: Q01DX001 (ip), vehicle: water, evaluated on day 60): 183 and 194 % of control
- T/C (T/C endpoint: median survival time, dose: 300.0 mg/kg/injection, schedule: Q01DX001 (ip), vehicle: water, evaluated on day 90): 227 % of control
- survivor count (T/C endpoint: median survival time, dose: 300.0 mg/kg/injection, schedule: Q01DX014 (ip), vehicle: water): 5 of 8
- survivor count (T/C endpoint: median survival time, dose: 500.0 mg/kg/injection, schedule: Q01DX001 (ip), vehicle: saline): 3 of 8
- T/C (T/C endpoint: median survival time, dose: 500.0 mg/kg/injection, schedule: Q01DX001 (ip), vehicle: water, evaluated on day 5): 40, 148, 191 % of control
- T/C (T/C endpoint: median survival time, dose: 500.0 mg/kg/injection, schedule: Q01DX001 (ip), vehicle: water, evaluated on day 7): 265 % of control
- T/C (T/C endpoint: median survival time, dose: 500.0 mg/kg/injection, schedule: Q01DX001 (ip), vehicle: water, evaluated on day 50): 268 % of control
- T/C (T/C endpoint: median survival time, dose: 500.0 mg/kg/injection, schedule: Q01DX001 (ip), vehicle: water, evaluated on day 60): 183 % of control [7 of 8 alive]
- survivor count (T/C endpoint: median survival time, dose: 500.0 mg/kg/injection, schedule: Q01DX001 (ip), vehicle: water): 0 of 8, 4 of 8, 6 of 8
- survivor count (T/C endpoint: median survival time, dose: 500.0 mg/kg/injection, schedule: Q07DX003 (ip), vehicle: water): 6 of 8
- survivor count (T/C endpoint: median survival time, dose: 700.0 mg/kg/injection, schedule: Q01DX001 (ip), vehicle: water): 2 of 8
- survivor count (T/C endpoint: median survival time, dose: 800.0 mg/kg/injection, schedule: Q01DX001 (ip), vehicle: water): 0 of 8
- survivor count (T/C endpoint: median survival time, dose: 833.0 mg/kg/injection, schedule: Q01DX001 (ip), vehicle: saline): 0 of 8
- T/C (T/C endpoint: median survival time, dose: 833.0 mg/kg/injection, schedule: Q01DX001 (ip), vehicle: water, evaluated on day 5): 28 and 29 % of control
- T/C (T/C endpoint: median survival time, dose: 833.0 mg/kg/injection, schedule: Q01DX001 (ip), vehicle: water, evaluated on day 7): 97 % of control
- survivor count (T/C endpoint: median survival time, dose: 833.0 mg/kg/injection, schedule: Q01DX001 (ip), vehicle: water): 0 of 8 (2×), 1 of 8, 4 of 8
- survivor count (T/C endpoint: median survival time, dose: 833.0 mg/kg/injection, schedule: Q07DX003 (ip), vehicle: water): 1 of 8
- survivor count (T/C endpoint: median survival time, dose: 900.0 mg/kg/injection, schedule: Q01DX001 (ip), vehicle: water): 0 of 8

SMILES: CNC(C)Cc1ccc2c(c1)OCO2 (configuration not stated)
- survivor count (T/C endpoint: mean survival time, dose: 100.0 mg/kg/injection, schedule: Q01DX009 (ip), vehicle: saline): 3 of 6
- survivor count (T/C endpoint: mean survival time, dose: 150.0 mg/kg/injection, schedule: Q04DX003 (ip), vehicle: saline): 3 of 6
- survivor count [2]: 0 of 6
- survivor count (T/C endpoint: mean survival time, dose: 300.0 mg/kg/injection, schedule: Q04DX003 (ip), vehicle: saline): 0 of 6

SMILES: CC(CCN1CCOCC1)(CNC1=NCCN1)c1cccc2ccccc12 (configuration not stated)
- survivor count (T/C endpoint: mean survival time, dose: 100.0 mg/kg/injection, schedule: Q01DX009 (ip), vehicle: saline with Tween-80): 0 of 6
- survivor count (T/C endpoint: mean survival time, dose: 200.0 mg/kg/injection, schedule: Q01DX009 (ip), vehicle: saline with Tween-80): 0 of 6
- survivor count (T/C endpoint: mean survival time, dose: 400.0 mg/kg/injection, schedule: Q01DX009 (ip), vehicle: saline with Tween-80): 0 of 6

SMILES: CC1OC(=O)C(C2OC2C)=CC1O (configuration not stated)
- survivor count (T/C endpoint: mean survival time, dose: 50.0 mg/kg/injection, schedule: Q01DX009 (ip), vehicle: saline): 4 of 6
- survivor count (T/C endpoint: mean survival time, dose: 100.0 mg/kg/injection, schedule: Q01DX001 (ip), vehicle: saline): 1 of 6
- survivor count (T/C endpoint: mean survival time, dose: 200.0 mg/kg/injection, schedule: Q01DX001 (ip), vehicle: saline): 0 of 6

SMILES: NC(=O)Oc1c(Cl)cc(Cl)c(Cl)c1[N+](=O)[O-]
- survivor count (T/C endpoint: mean survival time, dose: 100.0 mg/kg/injection, schedule: Q04DX002 (ip), vehicle: Klucel (hydroxypropylcellulose) (HPC)): 1 of 3
- survivor count (T/C endpoint: mean survival time, dose: 200.0 mg/kg/injection, schedule: Q04DX002 (ip), vehicle: Klucel (hydroxypropylcellulose) (HPC)): 0 of 3
- survivor count (T/C endpoint: mean survival time, dose: 400.0 mg/kg/injection, schedule: Q04DX002 (ip), vehicle: Klucel (hydroxypropylcellulose) (HPC)): 0 of 3
